Source: publication doi:10.1101/2020.03.25.006957
No constants are given. Whether binding was seen depends on the method and setting. Binding seen in cells or lysates may run through a third protein. Here binding means that the protein was enriched with, or labelled near, the bait; the list need not be complete.

T1: MeGBSSI (cassava granule-bound starch synthase I) (cassava, Manihot esculenta (endogenous in storage roots)) (UniProt Q43784)
T1 sequence: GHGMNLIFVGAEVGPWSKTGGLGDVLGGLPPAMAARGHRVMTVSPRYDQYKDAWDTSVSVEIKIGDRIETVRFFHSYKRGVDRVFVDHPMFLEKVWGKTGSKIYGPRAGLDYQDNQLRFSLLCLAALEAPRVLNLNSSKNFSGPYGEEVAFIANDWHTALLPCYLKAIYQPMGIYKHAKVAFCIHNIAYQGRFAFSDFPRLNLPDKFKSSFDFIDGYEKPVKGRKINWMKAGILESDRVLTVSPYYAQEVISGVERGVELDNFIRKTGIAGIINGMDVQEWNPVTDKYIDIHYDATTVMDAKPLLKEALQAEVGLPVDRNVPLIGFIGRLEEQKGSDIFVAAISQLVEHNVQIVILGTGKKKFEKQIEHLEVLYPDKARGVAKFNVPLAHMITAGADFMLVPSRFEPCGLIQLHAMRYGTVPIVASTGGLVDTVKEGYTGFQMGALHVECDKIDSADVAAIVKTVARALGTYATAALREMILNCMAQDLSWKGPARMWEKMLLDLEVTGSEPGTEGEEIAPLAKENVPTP

B1: MeGBSSI (cassava granule-bound starch synthase I) (enzyme, UniProt Q43784 79-608)
chain: T1 sequence

Experiments:
Experiment in all cases: affinity purification with mass spectrometry
[1] = biological target: T1, MeGBSSI (cassava granule-bound starch synthase I) (cassava, Manihot esculenta (endogenous in storage roots))
[2] = biological target: MeSBEII (cassava starch branching enzyme II) (cassava, Manihot esculenta (endogenous in storage roots))
[3] = biological target: MeSSI (cassava soluble starch synthase I) (cassava, Manihot esculenta (endogenous in storage roots))
[4] = biological target: MeSSII (cassava soluble starch synthase II) (cassava, Manihot esculenta (endogenous in storage roots))
[5] = biological target: MeSBEI (cassava starch branching enzyme I) (cassava, Manihot esculenta (endogenous in storage roots))
[6] = biological target: MeISAI (cassava isoamylase I) (cassava, Manihot esculenta (endogenous in storage roots))
[7] = biological target: MeISAII (cassava isoamylase II) (cassava, Manihot esculenta (endogenous in storage roots))

Molecule	binding [1]	other results
MeSSI (cassava soluble starch synthase I) (enzyme)	binds	
Pyruvate orthophosphate dikinase (MePPDK) (enzyme)	binds	
MeSBEII (cassava starch branching enzyme II)	binds	
MeISAII (cassava isoamylase II) (enzyme)	binds	
14-3-3 protein	binds	
Starch phosphorylase (MePho) (enzyme)	binds	
MeSuS (enzyme)	binds	
MeISAI (cassava isoamylase I) (enzyme)	binds	
MeSBEI (cassava starch branching enzyme I)	binds	
MeSSII (cassava soluble starch synthase II) (enzyme)	binds	
MeAGPase (enzyme)	binds	
B1		binding [2]: binds; binding [3]: binds; binding [4]: binds; binding [5]: binds; binding [6]: binds; binding [7]: binds
